According to the supplement of paper PMC7411640:
Structures can show the parent of a compound that is named as a salt. The list shows a part of the results. Most values lie within the scatter of the assay; repeated measurements hardly agree.

Tested on: MDA-MB-468
Assay: phospho-S6 immunofluorescence (DAPI-normalised), per-plate z-score; higher = higher phospho-S6 signal (less pathway suppression)
Details: 24 h
Protocol: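 GPCR-targeted compound library (MedChemExpress HY-L006) tested on MDA-MB-468 PTEN-null TNBC cells in 384-well plates at 0.1, 1 or 10 uM, combined with vehicle, GDC0941 450 nM or lapatinib 1 uM, for 24 h. Phospho-S6 (S240/244) immunofluorescence normalised to DAPI and expressed as a per-plate z-score; values are the mean of biological triplicates.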

[1] = compound 0.1 µM, co-treatment: GDC0941 450 nM
[2] = compound 0.1 µM, co-treatment: lapatinib 1 uM
[3] = compound 0.1 µM, co-treatment: vehicle
[4] = compound 1 µM, co-treatment: GDC0941 450 nM
[5] = compound 1 µM, co-treatment: lapatinib 1 uM
[6] = compound 1 µM, co-treatment: vehicle
[7] = compound 10 µM, co-treatment: GDC0941 450 nM
[8] = compound 10 µM, co-treatment: lapatinib 1 uM
[9] = compound 10 µM, co-treatment: vehicle

Row | SMILES | phospho-S6 immunofluorescence (z-score) [1] | phospho-S6 immunofluorescence (z-score) [2] | phospho-S6 immunofluorescence (z-score) [3] | phospho-S6 immunofluorescence (z-score) [4] | phospho-S6 immunofluorescence (z-score) [5] | phospho-S6 immunofluorescence (z-score) [6] | phospho-S6 immunofluorescence (z-score) [7] | phospho-S6 immunofluorescence (z-score) [8] | phospho-S6 immunofluorescence (z-score) [9]
1 | CCCN(CCc1cccs1)[C@H]1CCc2c(O)cccc2C1 [Rotigotine] | 0.5 | -0.19 | -0.46 | 0.12 | -0.35 | -0.35 | – | – | –
2 | O=C(NCCCN1CCC2(CC1)OCc1ccccc12)[C@H]1CCCN1Cc1ccccc1 | -0.39 | -0.26 | -0.5 | 0.46 | -0.96 | -1.28 | – | – | –
3 | O=C(O)Cn1c2c(c3cc(F)ccc31)CN(C(=O)c1cccc3ccccc13)CC2 [Setipiprant] | -0.98 | -0.83 | -0.65 | -0.4 | 0.34 | -0.47 | – | – | –
4 | CN(C)CC/C=C1/c2ccccc2COc2ccc(CC(=O)O)cc21 [Olopatadine (hydrochloride)] | 0.86 | -0.06 | 0.31 | -0.06 | -0.72 | -0.46 | – | – | –
5 | COC(=O)CCc1ccc(OCC(O)CNC(C)C)cc1 (configuration not stated) [Esmolol (hydrochloride)] | 0.37 | -0.37 | -0.06 | 0.82 | 0.08 | 0.64 | – | – | –
6 | CC(ONC(=O)c1cc(C(F)(F)F)cc(C(F)(F)F)c1)C(=O)Nc1ccc(Cl)cc1 (configuration not stated) | 0.76 | 0.5 | 0.77 | -0.14 | 0.34 | 0.79 | – | – | –
7 | CN(C)N(C)C(=O)[C@@]1(Cc2ccccc2)CCCN(C(=O)[C@@H](Cc2c[nH]c3ccccc23)NC(=O)C(C)(C)N)C1 [Anamorelin] | 0.81 | -0.48 | -0.5 | -0.13 | -0.68 | 1.39 | – | – | –
8 | Cc1c(CC(=O)O)c2cccnc2n1Cc1ccc(S(C)(=O)=O)cc1C(F)(F)F [Fevipiprant] | 0.86 | -0.03 | 1.24 | 0.27 | 0.08 | 0.63 | – | – | –
9 | Cc1[nH]cnc1CN1CCc2c(c3ccccc3n2C)C1=O [Alosetron (Hydrochloride)] | 1.15 | 0 | 0.8 | 2.08 | -0.02 | -0.34 | – | – | –
10 | CNCC(O)c1ccc(O)c(O)c1 (racemic) [DL-Epinephrine] | 0.33 | -0.13 | -0.93 | 0.26 | 3.48 | 0.49 | – | – | –
11 | COc1ccccc1Oc1c(NS(=O)(=O)c2ccc(C(C)(C)C)cc2)nc(-c2ncccn2)nc1OCCO [Bosentan (hydrate)] | 0.4 | -0.34 | -0.02 | 0.7 | 0.14 | -0.1 | – | – | –
12 | CN1CC2c3ccccc3Oc3ccc(Cl)cc3C2C1 (configuration not stated) [Asenapine (hydrochloride)] | -1.3 | 0.18 | -0.02 | -1.15 | -1.24 | -1.24 | – | – | –
13 | CC(=O)OCC(=O)NCCCOc1cccc(CN2CCCCC2)c1 [Roxatidine (Acetate Hydrochloride)] | 0.18 | 0.58 | 0.71 | 0.64 | -0.3 | 0.68 | – | – | –
14 | CCN1CCCC1CNC(=O)c1cc(S(=O)(=O)CC)c(N)cc1OC (configuration not stated) [Amisulpride] | 0.98 | 0.25 | -0.16 | 0.39 | 0.09 | -0.05 | – | – | –
15 | COc1cc(N)cn[n+]1-c1ccccc1 [Amezinium (methylsulfate)] | 0.57 | 1.15 | -0.07 | 0.07 | 0.99 | -0.23 | – | – | –
16 | CNCC(O)c1ccc(O)c(O)c1 [L-Epinephrine] | 0 | 1.93 | -0.58 | 0.41 | 3.56 | -0.06 | – | – | –
17 | CN1CCN(C2=Nc3cc(Cl)ccc3Nc3ccccc32)CC1 [Clozapine (N-oxide)] | 0.57 | -0.45 | -0.95 | 1.27 | 0.19 | -0.95 | – | – | –
18 | CC[N+](CC)(CC)CCOc1cccc(OCC[N+](CC)(CC)CC)c1OCC[N+](CC)(CC)CC [Gallamine Triethiodide] | 2.01 | -0.53 | 0.83 | -0.17 | 0.47 | 0.58 | – | – | –
19 | CN(C)CCC(c1ccc(Br)cc1)c1ccccn1 (configuration not stated) [Brompheniramine (maleate)] | 0.08 | -0.39 | -0.68 | -0.52 | -0.37 | 1.16 | – | – | –
20 | CCN(Cc1ccncc1)C(=O)C(CO)c1ccccc1 (configuration not stated) [Tropicamide] | 0.09 | 0.79 | -0.48 | -0.53 | 1.03 | -0.97 | – | – | –
21 | C=CCN1CCCC1CNC(=O)c1cc(S(N)(=O)=O)cc(OC)c1OC (configuration not stated) [Veralipride] | -0.03 | 0.83 | -0.01 | -0.48 | 1.32 | -0.6 | – | – | –
22 | CNC[C@H](O)c1cccc(O)c1 [(R)-(-)-Phenylephrine (hydrochloride)] | 1.11 | 0.82 | 0.77 | 0.85 | 0.67 | 0.87 | – | – | –

Row | SMILES | phospho-S6 immunofluorescence (z-score) [1] | phospho-S6 immunofluorescence (z-score) [2] | phospho-S6 immunofluorescence (z-score) [3] | phospho-S6 immunofluorescence (z-score) [4] | phospho-S6 immunofluorescence (z-score) [5] | phospho-S6 immunofluorescence (z-score) [6] | phospho-S6 immunofluorescence (z-score) [7] | phospho-S6 immunofluorescence (z-score) [8] | phospho-S6 immunofluorescence (z-score) [9]
23 | O=C1Cc2cc(CCN3CCN(c4nsc5ccccc45)CC3)c(Cl)cc2N1 [Ziprasidone (hydrochloride monohydrate)] | 0.4 | 0.5 | -0.15 | -0.23 | 0.92 | -1.2 | – | – | –
24 | COc1ccc(N2CCOCC2)c2sc(NC(=O)N3CCC(C)(O)CC3)nc12 [Tozadenant] | 1.45 | 0.07 | 0.83 | -1.05 | -0.43 | 0.63 | – | – | –
25 | CNC[C@H](O)c1ccc(O)c(O)c1 [L-Epinephrine (Bitartrate)] | -1.12 | 2.65 | -0.56 | 0.3 | 3.13 | -0.97 | – | – | –
26 | O=c1n(CCCN2CCN(c3cccc(Cl)c3)CC2)nc2ccccn12 [Trazodone (hydrochloride)] | -0.6 | -1.05 | -0.97 | 0.62 | -0.2 | -0.57 | – | – | –
27 | O=C(Nc1cccc2c(=O)cc(-c3nnn[nH]3)oc12)c1ccc(OCCCCc2ccccc2)cc1 [Pranlukast (hemihydrate)] | 0.7 | -0.53 | -0.54 | 0.66 | 1.23 | 0.7 | – | – | –
28 | CCCN(CCC)CCc1cccc2c1CC(=O)N2 [Ropinirole (hydrochloride)] | 0.47 | -0.58 | -0.26 | 0.29 | 0.27 | 0.23 | – | – | –
29 | CN(C)CCC(c1ccccc1)c1ccccn1 (configuration not stated) [Pheniramine (Maleate)] | -1.65 | -1.57 | -0.63 | -0.5 | -1.45 | -0.55 | – | – | –
30 | CCN(CC)CC#CCOC(=O)C(O)(c1ccccc1)C1CCCCC1 (configuration not stated) [Oxybutynin (chloride)] | 0.01 | 0.07 | -0.58 | 1.1 | -0.33 | 0.07 | – | – | –
31 | CCC/N=C1\S/C(=C\c2ccc(OC[C@H](O)CO)c(Cl)c2)C(=O)N1c1ccccc1C [Ponesimod] | 0.05 | 0.97 | 0.68 | 0.94 | 0.37 | 0.65 | – | – | –
32 | COc1cc2nc(N3CCN(C(=O)C4CCCO4)CC3)nc(N)c2cc1OC (configuration not stated) [Terazosin (hydrochloride dihydrate)] | 0.48 | 1.09 | 0.07 | 0.5 | -0.9 | 0.16 | 0.82 | 0.9 | 0.87
33 | Cc1nc(C#Cc2cccnc2)cs1 [MTEP (hydrochloride)] | -0.39 | 0.83 | -1.45 | -1.01 | -0.05 | -0.34 | -0.31 | -0.65 | -0.75
34 | CCOC(=O)O[C@]1(C(=O)OCCl)CC[C@H]2[C@@H]3CCC4=CC(=O)C=C[C@]4(C)[C@H]3[C@@H](O)C[C@@]21C [Loteprednol Etabonate] | -1.28 | 0.32 | -0.83 | -0.06 | 0.43 | -0.46 | – | – | –
35 | CC(C)COc1ccc(CNC(=O)N(Cc2ccc(F)cc2)C2CCN(C)CC2)cc1 [Pimavanserin] | 0.37 | -0.62 | -0.03 | 0.84 | -0.49 | -0.04 | -2.66 | -2.95 | -2.1
36 | Cn1cc(C(=O)[C@@H]2CCc3[nH]cnc3C2)c2ccccc21 [Ramosetron (Hydrochloride)] | 0.04 | -0.85 | -0.48 | -1.12 | -0.32 | -1.92 | -1.27 | 0 | -0.92
37 | CN(C)C(=O)CCSC(SCCC(=O)O)c1cccc(/C=C/c2ccc3ccc(Cl)cc3n2)c1 (configuration not stated) [MK-571 (sodium salt)] | 1.18 | 0.52 | 1.27 | 0.8 | 0.35 | 1.36 | -0.65 | 0.9 | 1.28
38 | O=C(NCC(=O)N1CC[C@H](N[C@H]2CC[C@@](O)(c3ccc(-c4ncccn4)cn3)CC2)C1)c1cccc(C(F)(F)F)c1 | 1.37 | -0.43 | 0.77 | -0.42 | -0.34 | 1.18 | – | – | –
39 | CC1(C)O[C@@H]2C[C@H]3[C@@H]4CCC5=CC(=O)C=C[C@]5(C)[C@H]4[C@@H](O)C[C@]3(C)[C@]2(C(=O)CO)O1 [Desonide] | 0.92 | 1.88 | 2.18 | 0.01 | 1.53 | 1.42 | -0.1 | 0.54 | 1.16
40 | C[C@H]1C[C@@H]2[C@H]([C@@H](O)C[C@@]3(C)[C@H]2CC[C@]3(O)C(=O)CO)[C@@]2(C)C=CC(=O)C=C12 [Methylprednisolone] | -0.92 | 1.6 | 0.58 | -1.17 | 2.79 | 0.18 | 0.3 | 3.09 | 0.51
41 | Cc1cccn2c(=O)c(C=C(C#N)c3nc4ccccc4s3)c(Oc3ccc(F)cc3)nc12 | -0.39 | -0.25 | -0.83 | 0.69 | 0.41 | -0.12 | 0.33 | 1.14 | -0.48
42 | CN1CCN(C2=Nc3ccccc3Oc3ccc(Cl)cc32)CC1 [Loxapine (succinate)] | -2.05 | 0.59 | -3.1 | -1.48 | 0.44 | 0.51 | 0.7 | 1.22 | -1.15
43 | c1ccc2c(c1)OCC(CN1CCCCC1)O2 (configuration not stated) [Piperoxan (hydrochloride)] | 1.08 | 1.29 | 0.86 | 0.91 | 0.25 | 0.71 | 0.28 | 0.61 | 0.8
44 | CC(C)Cc1ccc([C@@H](C)C(=O)NS(C)(=O)=O)cc1 [Reparixin] | -1.1 | -0.28 | -1.43 | -0.1 | -0.83 | -0.69 | 0.03 | 0.34 | -1.14

Eight entries from above, reformatted.
Row,SMILES,phospho-S6 immunofluorescence (z-score) [1],phospho-S6 immunofluorescence (z-score) [2],phospho-S6 immunofluorescence (z-score) [3],phospho-S6 immunofluorescence (z-score) [4],phospho-S6 immunofluorescence (z-score) [5],phospho-S6 immunofluorescence (z-score) [6],phospho-S6 immunofluorescence (z-score) [7],phospho-S6 immunofluorescence (z-score) [8],phospho-S6 immunofluorescence (z-score) [9]
29,CN(C)CCC(c1ccccc1)c1ccccn1 (configuration not stated) [Pheniramine (Maleate)],-1.65,-1.57,-0.63,-0.5,-1.45,-0.55,–,–,–
30,CCN(CC)CC#CCOC(=O)C(O)(c1ccccc1)C1CCCCC1 (configuration not stated) [Oxybutynin (chloride)],0.01,0.07,-0.58,1.1,-0.33,0.07,–,–,–
31,CCC/N=C1\S/C(=C\c2ccc(OC[C@H](O)CO)c(Cl)c2)C(=O)N1c1ccccc1C [Ponesimod],0.05,0.97,0.68,0.94,0.37,0.65,–,–,–
32,COc1cc2nc(N3CCN(C(=O)C4CCCO4)CC3)nc(N)c2cc1OC (configuration not stated) [Terazosin (hydrochloride dihydrate)],0.48,1.09,0.07,0.5,-0.9,0.16,0.82,0.9,0.87
33,Cc1nc(C#Cc2cccnc2)cs1 [MTEP (hydrochloride)],-0.39,0.83,-1.45,-1.01,-0.05,-0.34,-0.31,-0.65,-0.75
34,CCOC(=O)O[C@]1(C(=O)OCCl)CC[C@H]2[C@@H]3CCC4=CC(=O)C=C[C@]4(C)[C@H]3[C@@H](O)C[C@@]21C [Loteprednol Etabonate],-1.28,0.32,-0.83,-0.06,0.43,-0.46,–,–,–
35,CC(C)COc1ccc(CNC(=O)N(Cc2ccc(F)cc2)C2CCN(C)CC2)cc1 [Pimavanserin],0.37,-0.62,-0.03,0.84,-0.49,-0.04,-2.66,-2.95,-2.1
36,Cn1cc(C(=O)[C@@H]2CCc3[nH]cnc3C2)c2ccccc21 [Ramosetron (Hydrochloride)],0.04,-0.85,-0.48,-1.12,-0.32,-1.92,-1.27,0,-0.92
